Percent effect of library compounds

Source: ChEMBL document CHEMBL3988442, “University of Dundee, Small-Polar-MMV Screening Library” (2021).

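Whole-cell growth test on Mycobacterium tuberculosis, read after 4 days in a medium based on cholesterol and the lipid DPPC; the read-out is not stated. Concentration: 50 µM. Direction is inferred from retests: higher values go with more growth inhibition. About 69,000 compounds were tested under these conditions; 0.54% (about 370) showed 50% or more at least once.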

Values are the deposited “Percent Effect”, in %.
How 0% and 100% were set is not recorded. Most values in the screen are low, and negative values occur.
The compounds are a random part of those screened.
Two or more numbers in one place are separate tests of the same structure; such repeats can differ widely.

With Cc1c(C(=O)NCC2CCCO2)nnn1-c1cccc2c1CCN(C)C2 (stereo not given) the screen gave -23.42%.
With Cc1cc(C)n(CCN(C)c2ccc(-c3nc(C4CC4)no3)cn2)n1 the screen gave 15.2%.
With CCN1CCC(CNC(=O)C2(c3cccc(C)c3)CCCCC2)CC1 the screen gave -4.988%.
With CC(C(=O)NCCOc1ccc(F)cc1)n1cncn1 (stereo not given) the screen gave -3.083%.
With C[C@H]1CN2C[C@H](O)CC2CN1Cc1ccncc1 (stereo not given in full) the screen gave 8.86%.
With Cc1ccc(CN2CCCC(c3nnc(CN4CCCCC4)n3C)C2)s1 (stereo not given) the screen gave -21.47% & 1.45%.
With Cc1nc(C)n(CC2CCCN(CCCS(=O)(=O)N(C)C)C2)n1 (stereo not given) the screen gave -10.74% & -11.94%.
With Cc1cnc(CN2CCCC(c3cc(C)[nH]n3)C2)cn1 (stereo not given) the screen gave 2.193%.
With CC(C(=O)NCc1ccnc(OCC(F)(F)F)c1)n1cncn1 (stereo not given) the screen gave -6.446%.
With Cc1cc(F)ccc1NCC(=O)NCC(F)(F)F the screen gave -7.754% & 9.226%.
With O=c1[nH]c2ncccc2n1C1CCCCC1 the screen gave -24.73%.
With Cc1cncc(C2CCN(Cc3ccc(S(C)(=O)=O)cc3)CC2)n1 the screen gave -1.813% & -4.512%.
With O=C(NCc1ccccc1CN1CCOCC1)Nc1nncs1 the screen gave -29.7%.
With COc1ccc(CNC(=O)NC2CCC(O)CC2)c(C(F)(F)F)c1 (stereo not given) the screen gave -22.92%.
With [H][C@@]12CCCO[C@]1([H])[C@@H](Oc1cccnc1)CN2C(=O)C1=CCCC1 the screen gave 7.779% & 0.8359%.
With O=C(O)C(F)(F)F.[H][C@@]12CO[C@H](CNS(C)(=O)=O)[C@]1([H])CCN(CCc1ccccc1)C2 the screen gave 0.7518%.
With CN(C)CCN(Cc1ccc(Cl)cc1)C(=O)c1cnccn1 the screen gave 3.516%.
With O=C1CC(C(=O)O)C2(CCN(C(=O)NCc3ccc(Cl)cc3)CC2)N1 (stereo not given) the screen gave -0.2264% & -13.73%.
With COc1ccc2c(=O)n(CC3CCNC3)ccc2c1OC (stereo not given) the screen gave -14.46%.
With C=C(C)CN1CCCC(CNS(C)(=O)=O)C1 (stereo not given) the screen gave 17.57%.
With O=C(c1ccccc1-c1nnn[nH]1)N1CCOC(C(F)(F)F)C1 (stereo not given) the screen gave 1.548%.
With [H][C@@]12CCN(c3ncccn3)C[C@]1([H])[C@@H](CNC(=O)c1ccnnc1)OC2 the screen gave 19.98%.
With [H][C@@]12CN(CCOC)C[C@]1([H])[C@@H](OC)CCN2C(=O)c1cccc(OC)c1 the screen gave -7.39%.
With CC(C)c1nccn1C1CCCN(C(=O)CCc2cscn2)C1 (stereo not given) the screen gave -18.15%.
With Cc1oc(CNC(=O)Cc2ccccc2Cl)cc1C(=O)O the screen gave 6.857%.
With O=C(O)C(F)(F)F.O=C(O)C(F)(F)F.[H][C@]12CCN(Cc3nccs3)[C@@]1([H])CC[C@H](COCc1cccnc1)O2 the screen gave -1.473% & 2.985%.
With CSCC(CCO)NC(=O)Nc1cc(Br)ccc1C (stereo not given) the screen gave 15.43%.
With Cc1ccc(C)c(NS(=O)(=O)c2cc3c(c(C(=O)O)c2)OCCO3)c1 the screen gave -1.146%.
With CCc1cc(CNC(=O)N2Cc3ccccc3N(C)CC2C)on1 (stereo not given) the screen gave -4.495%.
With Cc1cc(C[C@@H]2CCC[C@H]2NCc2cc(F)ccc2F)on1.O=C(O)CC(O)(CC(=O)O)C(=O)O the screen gave -6.714%.
With CC(C)c1nccn1C1CCCN(C(=O)c2cnn(C)c2C2CC2)C1 (stereo not given) the screen gave -4.489%.
With C[C@@H]1CN(C(=O)c2cc(Cn3ccc4ccccc43)[nH]n2)C[C@H](C)O1 the screen gave -23.46%.
With N#CCCN(CC1CCOC1)S(=O)(=O)c1cccc(Cl)c1 (stereo not given) the screen gave 4.111%.
With COc1c(CNC(c2ccc(F)cc2)C(C)(C)C)c(C)nn1C (stereo not given) the screen gave 0.3744%.
With CN(CCn1ccnc1-c1ccccn1)S(C)(=O)=O the screen gave -31.06%.
With CC(C)OCCCN1CCCC(c2nc3ccccc3n2C(C)C)C1 (stereo not given) the screen gave -3.181% & -22.37%.
With CN(C)C(=O)N1CCC(c2nc3ccc(-c4ccccc4)cn3n2)CC1 the screen gave 17.47%.
With CC(=O)N(C)C1CCN(C(=O)c2cccc3c2ccn3C)CC1 the screen gave -14.77%.
With COc1ccc(CN2CCCN(c3cc(C(N)=O)ccn3)CC2)cc1 the screen gave -21.23%.
With COCc1noc(-c2cc(Cl)c3c(c2)OCO3)n1 the screen gave 10.45%.
With CCNC(=O)[C@@H]1C[C@H](N)CN1C(=O)Cc1cc(C)ccc1C the screen gave 17.39% & 7.775%.
With [H][C@@]12CCN(C(=O)c3cc(-c4ccco4)nc4c(Cl)cccc34)[C@]1([H])CNC2 the screen gave 24.38%.
With CCc1nccn1C1CCCN(C(=O)c2cnc[nH]2)C1 (stereo not given) the screen gave -12.52%.
With CO[C@H]1CNC[C@@H]1NC(=O)c1cc(C)nc2c(C)c(C)ccc12 the screen gave 5.316%.
With CCN(CC)CCNc1nc(C(C)C)nc2c(C)nn(CC)c12 the screen gave -1.322%.
With c1cncc(NCCNC2CSCCSC2)c1 the screen gave -9.635%.
With N#Cc1cccnc1N1CCCN(C(=O)CCn2cccn2)CC1 the screen gave 19.24%.
With CC(C)c1nc(C2CCCN2c2cnc3cc(F)c(F)cc3n2)no1 (stereo not given) the screen gave 3.793%.